# Patent US5132429A, “Benzotriazole derivatives and fluorescence-emitting reagents thereof” (priority 1988, dated 1992)
# Target: α1-AG (α1-acid glycoprotein)
# Experiment: Binding constant of basic drug to α1-AG by displacement of compound 1 (fluorescence probe method, Klotz formula)
# Details: 0.1M phosphoric acid buffer pH 7.4; 3×10^-6 M α1-AG; compound 1 as probe
# Protocol: Two different kinds of solutions, one containing α1 -AG and a compound of this invention listed above, the other containing α1 -AG, the compound of this invention, and a drug, are prepared to measure fluorescence intensity at the excitation. fluorescence wavelength, as shown in Table 2. According to the working curve made beforehand, the binding rate of the compound to α1 -AG in each solution is determined and the binding constant of a drug to α1-AG is calculated from the difference between the binding rates in the presence and the absence of a drug.
# In the fluorescence cell made of quartz with a plug was placed the buffer solution of 0.1M phosphoric acid (2 ml) which pH is 7.4 and containig 1×10^-4 M α1 -AG, to which 5×10^-4 M aqueous solution of the compound 1 was added by 2 μl each with a microcylinder, which was prepared by dissolving about 3 mg of the compound 1 in 1N hydrochloric acid (1 ml), followed by diluting with water to make the total volume 200 times, and the resulting solution was mixed fully to determine fluorescence intensity at 508 nm (excitation wavelength: 418 nm).
# For the buffer solution of 0.1M phosphoric acid (2 ml) which pH is 7.4 and containing 3×10^-6 M α1 -AG, the same procedure as in Example 1 was performed.
# As for the other basic drugs shown in Table 3, binding constant were obtained according to the same manner as in Example 11.
smiles,measurement,value
CCN(CC)CC(=O)Nc1c(C)cccc1C [Lidocaine],log Kb (binding constant),5.12
